Laboratory results reported in the supplement of paper PMC9015667.
Where a name gives a salt, the structure may show the parent alone. Some of the results follow. Single values are uncertain, as repeats are few or missing.

System: M229P (parental melanoma line)
Assay: reduction in cell viability relative to untreated/vehicle; higher = more growth inhibition
Conditions: 200 nM; 72 h

Row | SMILES | reduction in cell viability [%]
1 | CC[C@H](c1ccc(O)cc1)[C@@H](CC)c1ccc(O)cc1 [Hexestrol] | < 0
2 | CN(c1nccc(=O)[nH]1)C1CCN(c2nc3ccccc3n2Cc2ccc(F)cc2)CC1 [Mizolastine] | < 0
3 | COc1cc2nccc(Oc3ccc(NC(=O)Nc4cc(C)on4)c(Cl)c3)c2cc1OC [Tivozanib] | < 0
4 | COc1cc2nc(N3CCN(C(=O)c4ccco4)CC3)nc(N)c2cc1OC [Prazosin hydrochloride] | < 0
5 | CC(C)c1ccc(Cn2ccc3c4c(N)nc(NC5CC5)nc4ccc32)cc1 | 23.9
6 | COc1nccc(-c2c(-c3ccc(F)cc3)ncn2C2CCNCC2)n1 | < 0
7 | COc1nc(C)cnc1NS(=O)(=O)c1cccnc1-c1ccc(-c2nnco2)cc1 [Zibotentan] | < 0
8 | CCOC(=O)Nc1ccc(NCc2ccc(F)cc2)nc1N [Flupirtine maleate] | < 0
9 | O=C(NCC1CCCCN1)c1cc(OCC(F)(F)F)ccc1OCC(F)(F)F (stereo not given) [Flecainide] | < 0
10 | CC(C(=O)O)c1cccc(C(=O)c2ccccc2)c1 (stereo not given) [Ketoprofen] | < 0
11 | CCc1cnn2c(NCc3ccc[n+]([O-])c3)cc(N3CCCC[C@H]3CCO)nc12 | 43.5
12 | O=C(/C=C/c1cccnc1)NCCCCC1CCN(C(=O)c2ccccc2)CC1 [FK866 (APO866, Daporinad)] | 96.5
13 | CC(C)NCC(O)COc1ccc(CCOCC2CC2)cc1 (stereo not given) [Betaxolol] | < 0
14 | Cc1cc(C(C)Nc2ccccc2)c2nc(N3CCOCC3)cc(=O)n2c1 (stereo not given) | < 0
15 | COc1cc([C@@H]2c3cc4c(cc3[C@@H](O[C@@H]3O[C@@H]5CO[C@@H](C)O[C@H]5[C@H](O)[C@H]3O)[C@H]3COC(=O)[C@H]23)OCO4)cc(OC)c1O [Etoposide] | < 0
16 | NS(=O)(=O)OC[C@@H]1C[C@@H](n2ccc3c(N[C@H]4CCc5ccccc54)ncnc32)C[C@@H]1O | 29.7
17 | OC(CCN1CCCCC1)(c1ccccc1)C1CC2C=CC1C2 (stereo not given) [Biperiden] | < 0
18 | OC[C@H]1O[C@@H](n2cnc3c2N=CNC[C@H]3O)C[C@@H]1O [Pentostatin] | < 0
19 | CC1(C)O[C@@H]2C[C@H]3[C@@H]4C[C@H](F)C5=CC(=O)C=C[C@]5(C)[C@H]4[C@@H](O)C[C@]3(C)[C@]2(C(=O)CO)O1 [Flunisolide] | < 0
20 | COc1cc2ncnc(Nc3ccc(F)c(Cl)c3)c2cc1NC(=O)/C=C/CN1CCCCC1 [Dacomitinib] | < 0

By substructure, the compounds so far containing a carbonyl joined to an NH by a bond outside any ring (5)
Row | SMILES | reduction in cell viability [%]
3 | COc1cc2nccc(Oc3ccc(NC(=O)Nc4cc(C)on4)c(Cl)c3)c2cc1OC [Tivozanib] | < 0
8 | CCOC(=O)Nc1ccc(NCc2ccc(F)cc2)nc1N [Flupirtine maleate] | < 0
9 | O=C(NCC1CCCCN1)c1cc(OCC(F)(F)F)ccc1OCC(F)(F)F (stereo not given) [Flecainide] | < 0
12 | O=C(/C=C/c1cccnc1)NCCCCC1CCN(C(=O)c2ccccc2)CC1 [FK866 (APO866, Daporinad)] | 96.5
20 | COc1cc2ncnc(Nc3ccc(F)c(Cl)c3)c2cc1NC(=O)/C=C/CN1CCCCC1 [Dacomitinib] | < 0

Continued:

Row | SMILES | reduction in cell viability [%]
21 | COc1ccc(F)c(F)c1C(=O)c1cnc(NC2CCN(S(C)(=O)=O)CC2)nc1N | < 0
22 | CC(C)C[C@@H](N)[C@H](O)C(=O)N[C@H](C(=O)N[C@H](C(=O)N[C@@H](CC(=O)O)C(=O)O)C(C)C)C(C)C [Amastatin] | < 0
23 | Nc1cc(C(F)(F)F)c(-c2cc(N3CCOCC3)nc(N3CCOCC3)n2)cn1 [BKM120 (NVP-BKM120, Buparlisib)] | < 0
24 | C[C@H](CCC(=O)O)[C@H]1CC[C@H]2[C@@H]3[C@H](O)C[C@@H]4C[C@H](O)CC[C@]4(C)[C@H]3CC[C@]12C [Chenodeoxycholic acid] | < 0
25 | CN(C)[C@@H]1C(O)=C(C(N)=O)C(=O)[C@@]2(O)C(O)=C3C(=O)c4c(O)cccc4[C@@](C)(O)[C@H]3C[C@@H]12 [Tetracycline hydrochloride] | < 0
26 | Cc1cc(Nc2nc(N[C@@H](C)c3ccc(F)cc3)c(C#N)cc2F)n[nH]1 | 7.62
27 | CCN(CC)CCOc1ccc(Nc2ncc3cc(-c4c(Cl)cccc4Cl)c(=O)n(C)c3n2)cc1 | 64.1
28 | Cc1cc(C(C)(C)C)cc(C)c1CC1=NCCN1 [Xylometazoline hydrochloride] | < 0
29 | CCn1cc(C(=O)O)c(=O)c2cc(F)c(N3CCNC(C)C3)c(F)c21 (stereo not given) [Lomefloxacin hydrochloride] | < 0
30 | C[C@]12CCC3=C4CCC(=O)C=C4CC[C@H]3[C@@H]1CC[C@@]2(O)CC#N [Dienogest] | < 0
31 | CN(C)CCCN1c2ccccc2CCc2ccc(Cl)cc21 [Clomipramine] | < 0
32 | O=C(NCCCCN1CCOCC1)c1cc2ccccc2o1 | < 0
33 | Cc1ccc(S(=O)(=O)Nc2cc(Cl)ccc2C(=O)Nc2nc(-c3ccccc3)cs2)cc1 | < 0
34 | C[C@@H](Oc1cc(-c2cnn(C3CCNCC3)c2)cnc1N)c1c(Cl)ccc(F)c1Cl | < 0
35 | C/C=C(/C)C(=O)O[C@H]1C(C)=C[C@]23C(=O)[C@@H](C=C(CO)[C@@H](O)[C@]12O)[C@H]1[C@@H](C[C@H]3C)C1(C)C [Ingenol mebutate] | 8.63
36 | CN(C)C(=O)C(CCN1CCC(O)(c2ccc(Cl)cc2)CC1)(c1ccccc1)c1ccccc1 [Loperamide] | < 0
37 | O=C1c2cccc(O)c2C(=O)c2c(O)cc(CO)cc21 [Aloe-emodin] | < 0
38 | CC1=C(/C=C/C(C)=C/C=C/C(C)=C/C(=O)O)C(C)(C)CCC1 [Tretinoin] | < 0
39 | CC(C)[C@H](CO)Nc1nc(Nc2cccc(Cl)c2)c2ncn(C(C)C)c2n1 [Purvalanol A] | < 0
40 | O=S(=O)(O)c1ccc2cc(N=Nc3cc(S(=O)(=O)O)c4cccnc4c3O)ccc2c1 | < 0
